Experimental data as given in article PMC7835349 (Communications Biology, 2021).
Further values from the same series stand in other lists.

Tested on: telemetered dogs
Assay: Conscious dog telemetry (QRS amplitude and other cardiovascular parameters, tolerability)
[1] = 1 mg/kg 0.5h infusion, dog 502, 0 hours
[2] = 1 mg/kg 0.5h infusion, dog 502, 0.5 hours
[3] = 1 mg/kg 0.5h infusion, dog 502, 1 hours
[4] = 1 mg/kg 0.5h infusion, dog 502, 1.5 hours
[5] = 1 mg/kg 0.5h infusion, dog 502, 2 hours
[6] = 1 mg/kg 0.5h infusion, dog 502, 3 hours
[7] = 1 mg/kg 0.5h infusion, dog 502, 4 hours
[8] = 1 mg/kg 0.5h infusion, dog 502, 6 hours
[9] = 1 mg/kg 0.5h infusion, dog 502, 8 hours
[10] = 1 mg/kg 0.5h infusion, dog 502, 10 hours
[11] = 1 mg/kg 0.5h infusion, dog 502, 12 hours
[12] = 1 mg/kg 0.5h infusion, dog 502, 16 hours
[13] = 1 mg/kg 0.5h infusion, dog 502, 20 hours
[14] = 1 mg/kg 0.5h infusion, dog 502, -0.5 hours
[15] = 1 mg/kg 0.5h infusion, dog 502, -0.75 hours
[16] = 1 mg/kg 0.5h infusion, dog 502, -1 hours
[17] = 1 mg/kg 0.5h infusion, dog 502, -[…]
[18] = 1 mg/kg 0.5h infusion, dog 502, […]
[19] = 1.7 mg/kg 0.5h infusion, dog 247, 0 hours
[20] = 1.7 mg/kg 0.5h infusion, dog 247, 0.5 hours
[21] = 1.7 mg/kg 0.5h infusion, dog 247, 1 hours
[22] = 1.7 mg/kg 0.5h infusion, dog 247, 1.5 hours

CN(CCO)CCC(CSc1ccccc1)Nc1ccc(S(=O)(=O)NC(=O)c2ccc(N3CCC(C(O)c4ccccc4-c4ccc(Cl)cc4)CC3)cc2)cc1S(=O)(=O)C(F)(F)F (stereo not drawn) [AZD4320]
ECG PR interval [1]: 111 ms
ECG QRS duration [1]: 46 ms
Left ventricular -dP/dt (mmHg/s) [1]: -1645 mmHg/s
QRS amplitude (% baseline) [1]: 100 % baseline
Systolic blood pressure (mmHg) [1]: 97 mmHg
ECG PR interval [2]: 109 ms
ECG QRS duration [2]: 44 ms
Left ventricular -dP/dt (mmHg/s) [2]: -1552 mmHg/s
QRS amplitude (% baseline) [2]: 97 % baseline
Systolic blood pressure (mmHg) [2]: 101 mmHg
ECG PR interval [3]: 106 ms
ECG QRS duration [3]: 44 ms
Left ventricular -dP/dt (mmHg/s) [3]: -1574 mmHg/s
QRS amplitude (% baseline) [3]: 92 % baseline
Systolic blood pressure (mmHg) [3]: 103 mmHg
ECG PR interval [4]: 106 ms
ECG QRS duration [4]: 47 ms
Left ventricular -dP/dt (mmHg/s) [4]: -1659 mmHg/s
QRS amplitude (% baseline) [4]: 106 % baseline
Systolic blood pressure (mmHg) [4]: 109 mmHg
ECG PR interval [5]: 118 ms
ECG QRS duration [5]: 47 ms
Left ventricular -dP/dt (mmHg/s) [5]: -1718 mmHg/s
QRS amplitude (% baseline) [5]: 101 % baseline
Systolic blood pressure (mmHg) [5]: 117 mmHg
ECG PR interval [6]: 107 ms
ECG QRS duration [6]: 45 ms
Left ventricular -dP/dt (mmHg/s) [6]: -1837 mmHg/s
QRS amplitude (% baseline) [6]: 57 % baseline
Systolic blood pressure (mmHg) [6]: 115 mmHg
ECG PR interval [7]: 91 ms
ECG QRS duration [7]: 44 ms
Left ventricular -dP/dt (mmHg/s) [7]: -1907 mmHg/s
QRS amplitude (% baseline) [7]: 39 % baseline
Systolic blood pressure (mmHg) [7]: 113 mmHg
ECG PR interval [8]: 86 ms
ECG QRS duration [8]: 43 ms
Left ventricular -dP/dt (mmHg/s) [8]: -1585 mmHg/s
QRS amplitude (% baseline) [8]: 35 % baseline
Systolic blood pressure (mmHg) [8]: 82 mmHg
ECG PR interval [9]: 89 ms
ECG QRS duration [9]: 43 ms
Left ventricular -dP/dt (mmHg/s) [9]: -1652 mmHg/s
QRS amplitude (% baseline) [9]: 46 % baseline
Systolic blood pressure (mmHg) [9]: 96 mmHg
ECG PR interval [10]: 90 ms
ECG QRS duration [10]: 44 ms
Left ventricular -dP/dt (mmHg/s) [10]: -1660 mmHg/s
QRS amplitude (% baseline) [10]: 63 % baseline
Systolic blood pressure (mmHg) [10]: 94 mmHg
ECG PR interval [11]: 88 ms
ECG QRS duration [11]: 45 ms
Left ventricular -dP/dt (mmHg/s) [11]: -1632 mmHg/s
QRS amplitude (% baseline) [11]: 70 % baseline
Systolic blood pressure (mmHg) [11]: 97 mmHg
ECG PR interval [12]: 94 ms
ECG QRS duration [12]: 44 ms
Left ventricular -dP/dt (mmHg/s) [12]: -1720 mmHg/s
QRS amplitude (% baseline) [12]: 77 % baseline
Systolic blood pressure (mmHg) [12]: 102 mmHg
ECG PR interval [13]: 109 ms
ECG QRS duration [13]: 46 ms
Left ventricular -dP/dt (mmHg/s) [13]: -1484 mmHg/s
QRS amplitude (% baseline) [13]: 85 % baseline
Systolic blood pressure (mmHg) [13]: 107 mmHg
ECG PR interval [14]: 115 ms
ECG QRS duration [14]: 46 ms
Left ventricular -dP/dt (mmHg/s) [14]: -1549 mmHg/s
QRS amplitude (% baseline) [14]: 93 % baseline
Systolic blood pressure (mmHg) [14]: 96 mmHg
ECG PR interval [15]: 106 ms
ECG QRS duration [15]: 46 ms
Left ventricular -dP/dt (mmHg/s) [15]: -1723 mmHg/s
QRS amplitude (% baseline) [15]: 102 % baseline
Systolic blood pressure (mmHg) [15]: 95 mmHg
ECG PR interval [16]: 103 ms
ECG QRS duration [16]: 45 ms
Left ventricular -dP/dt (mmHg/s) [16]: -1830 mmHg/s
QRS amplitude (% baseline) [16]: 98 % baseline
Systolic blood pressure (mmHg) [16]: 99 mmHg
ECG PR interval [17]: 119 ms
ECG QRS duration [17]: 47 ms
Left ventricular -dP/dt (mmHg/s) [17]: -1476 mmHg/s
QRS amplitude (% baseline) [17]: 106 % baseline
Systolic blood pressure (mmHg) [17]: 96 mmHg
ECG PR interval [18]: 131 ms
ECG QRS duration [18]: 46 ms
Left ventricular -dP/dt (mmHg/s) [18]: -1553 mmHg/s
QRS amplitude (% baseline) [18]: 83 % baseline
Systolic blood pressure (mmHg) [18]: 104 mmHg
ECG PR interval [19]: 94 ms
ECG QRS duration [19]: 43 ms
Left ventricular -dP/dt (mmHg/s) [19]: -2286 mmHg/s
QRS amplitude (% baseline) [19]: 100 % baseline
Systolic blood pressure (mmHg) [19]: 137 mmHg
ECG PR interval [20]: 90 ms
ECG QRS duration [20]: 43 ms
Left ventricular -dP/dt (mmHg/s) [20]: -2666 mmHg/s
QRS amplitude (% baseline) [20]: 96 % baseline
Systolic blood pressure (mmHg) [20]: 161 mmHg
ECG PR interval [21]: 88 ms
ECG QRS duration [21]: 42 ms
Left ventricular -dP/dt (mmHg/s) [21]: -2357 mmHg/s
QRS amplitude (% baseline) [21]: 81 % baseline
Systolic blood pressure (mmHg) [21]: 152 mmHg
ECG PR interval [22]: 93 ms
ECG QRS duration [22]: 42 ms
Left ventricular -dP/dt (mmHg/s) [22]: -2326 mmHg/s
